Experimental findings from PMC9578396, “Intrinsic Antibacterial Activity of Xeruborbactam In Vitro: Assessing Spectrum and Mode of Action” (Antimicrobial Agents and Chemotherapy, 2022) are described below.

This assay relates to K. pneumoniae strain KPM1026a. As to the kind of experiment: Fluorescence microscopy, cellular morphology. Type of assay: cell-based, Klebsiella pneumoniae. Conditions: treated at 1× and 2× MIC, 1 to 2 h, 30°C. The method, then: Single colonies of K. pneumoniae strain KPM1026a, A. baumannii strain ATCC 17978, and P. aeruginosa strain PAM1154 were picked from LB agar plates, inoculated in cation-adjusted Mueller-Hinton broth (CA-MHB), and incubated overnight at 30°C with rolling. Overnight cultures were diluted into fresh CA-MHB and incubated at 30°C, with rolling, until they reached an OD600 of ≈0.12 to 0.15 (equivalent to ~2 × 10^8 CFU/mL). Samples were then treated with compounds and incubated at 30°C, with rolling. After 1 or 2 h of treatment, cells were collected and stained with a dye mix containing FM4-64 (1 μg/mL), DAPI (4′,6-diamidino-2-phenylindole) (2 μg/mL), and SYTOX green (0.5 μM) (Molecular Probes, Invitrogen, or Thermo Fisher Scientific). Cells were transferred onto an agarose pad containing 1.2% agarose and 20% LB medium for microscopy. Microscopy was performed as previously described ([34]).

For the compound `CC1=C(C(=O)O)N2C(=O)[C@@H](NC(=O)[C@H](N)c3ccccc3)[C@H]2SC1` [cephalexin], the cellular morphology result was “filamentation”.
